From patent US20240016735A1, “IONIC LIQUIDS FOR DRUG DELIVERY” (PRESIDENT AND FELLOWS OF HARVARD COLLEGE, priority 2019, published 2024)

Tested on: anti-human TNF-α mouse IgG1 (clone MAb11)
Settings: 1 h incubation, 48 h dialysis at room temperature; ELISA

SMILES | CGLY concentration up to which impact on binding capability of TNF-α IgG1 is negligible
C[N+](C)(C)CCO.O=C([O-])CO [CGLY1:1, choline-glycolate] | ≤ 70 % v/v
C[N+](C)(C)CCO.O=C([O-])CO [CGLY2:1, choline-glycolate] | up to 60 % v/v
